In publication PMC2662408:
Results are given in words; binding and its absence hold for the method and conditions named. In cells and extracts the contact can be indirect. These calls come from enrichment with a bait or labelling near it, and not all partners need be listed. A no says only that the protein was not detected with the bait. Sequences can lack the tags named with a protein.

T1: FLAG tagged HP1c (Drosophila) (UniProt Q9VCU6)
T1 sequence: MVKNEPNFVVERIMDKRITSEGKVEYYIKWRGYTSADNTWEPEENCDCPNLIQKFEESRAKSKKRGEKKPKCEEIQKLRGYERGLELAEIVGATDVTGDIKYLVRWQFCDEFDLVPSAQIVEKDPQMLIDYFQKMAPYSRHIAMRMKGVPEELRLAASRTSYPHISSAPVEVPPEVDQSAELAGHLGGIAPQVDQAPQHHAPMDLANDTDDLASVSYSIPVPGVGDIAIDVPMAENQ

B1: Ubiquilin (protein, UniProt Q9VWD9 1-547)
chain: MAEGGSKRINVVVKTPKDKKTVEVDEDSGIKDFKILVAQKFEAEPEQLVLIFAGKIMKDTDTLQMHNIKDNLTVHLVIKAPTRNNEQPARQPADVRQTPFGLNQFGGLAGMEALGAGSNTFMDLQARMQNELLNNGDMLRSLMDNPMVQQMMNNPDTMRQLITSNPQMHDLMQRNPEISHMLNNPDLLRQTMELARNPSMLQELMRSHDRAMSNLESVPGGYSALQRIYRDIQEPMMNAATESFGRNPFAGLVDGGGSGAGNNPQQGTENRNPLPNPWGGANSGTNGTVGGSGAGNPTGDLPPNNVLNTPAMRSLLQQMADNPAMMQNLLNAPYTRSMMESMSQDPDMAARLLSSSPLMSNNPALQEQVRQMMPQFMAQMQNPEVMNMLTNPDAMNAILQIQQGMEQLRSAAPGLVGTLGIPPPPPGAGTGTNPASGDGSGGNSGASTNNVSPSSGLNAGTGTPNLAPGGGPNAQLFNDFMMRMLNGMSNNADNTQPPEVRYQSQLEQLNAMGFVNRDANLQALIATFGDINAAVERLLSLNQLSLS
B2: HP1b (protein, UniProt Q9W396 1-240)
chain: MAEFSVERVEDKRTVNGRTEYYLKWKGYPRSENTWEPVENLDCPDLIANFEESLKNNKKETKKRLSTSSTPESIRSKRKSFLEDDTEEQKKLIGFERGLEASKILGATDSSGHLMFLMKWKGSDHADLVPAKLANTRCPQVVIQFYEERLTWHTGSGNGNGNTNSVNLGSSGGLGSVGGSGAGDDTAPGSVGTTGGGSNIDGGDEEDPEPASPIGSINQDENIKPDESSELDNGQPDADD
B3: ACF1 (protein, UniProt Q9V9T4 1-1476)
chain: MPICKREGFDLNQKEGKNETFHDNDQVFCCYITKRIFRDYEHYFRHVMVINSTVWQCEATGKENLTYEEAVKSERAARKKMEQFKQSLRAPVLLVVEHAQQSAVNTLNMIVAKFLRKRYFIGEEVSVQAKKNATYTVLGVKLDKNMPEPLNGIYEDTDNLVYRLRPNKGDPSAELDLPFRQLRRSRMEFNLENLSMFIKSNVSRVDGLLRPKPEAYKQYVTDPGVNFSTIFIGKMPRYSPAKIKKPDGKKQSTLNKYIVAGEATAAKSKAKAKSDAKSLAEELERVKREKEAKLIELEKQKAEKKAQLIERVENECNLLLQKTDDLERTDQKVLPRYRQIVTLLPEHLLGDAFMMREFMHTYTGLLSGIEVFRQNLSFYEMTRALTAREIAGPLSDILLVLLGTVFDLQKEEEEECAVTYLDRAAQTQEPYWSMAQAAKSHLYAKRHFSFKVNELPLDALTLSEVLRLHLLGSGAFVNEKAERWRVMYRNGYSSKEDPGLELRLEHSHILRILKNHSVYQLKFKDIMLLIRCLMSQIMTYSGTINLIEERMEQTAKARQDLRALVVGENKRLAAVEINRKKLTQMHHLEVNGVEPEKREALVEKLKKSIAELHAQSDQQHRKHELQMLKLHSQLFNFLVYLGMDRCYRKYYVLESMPGIFVEHSPDSLDTCLEQPITNKSQIEIRQQSALPKNRKDLRVYLLKLYGDDEKKTKKKAKHSLENKENQEHRLNGSAEPMDVESDSPEAPTHFELLMCSGDKRSCIVHDSRNGQRQRWAYIYKAEEIDELIKALNPNGLREYELLQELSVLRSLIEQHAKTCPVDLLSLENETMRKKFMAAMESETNRKYGEANFGLPNGTDLNEVMRLHLVDRIIQFENDIYTGDLGRLKVKDMEKWRSDLLGGNYDAQCKLQWGPGGKLEDEAGSDNESHETHEEDDGALLGKYARKPYRDPGMYLAASADTKPLPDSDDEEDQHTNAVSIPIAVHNMASALLQVEQAIGKRFLKEPYGMKKWDPKQEALKLACDSRLHQWEVSLMESTSFAQVFLHLNILHDCIQWRRSTNKSLCKVCRRGSDPEKMLLCDECNAGTHMFCLKPKLRSVPPGNWYCNDCVKSLGLSNGQNEKDKKQATKKKRKFIVEEEDDEATDEEEEEKKDDDMTDEDAEHENEKHDEDVEDDESVTSTPSSSRVNGRILRRPRTRPTSRRLTSKEIEEHAQEDVDSGDVSDDASLTAGEDTIEDESDEEKVCQKCFYDGGEIKCVQCRLFFHLECVHLKRPPRTDFVCKTCKPMPQRPRRRHSNMNGDHDRDEEEPKAKRPRNSLRLSIDKTARPSNGNNNNNNNNSSVNNNNHRRSGRRTNEHMPLNSAALYDLLEQIMKHKAAWPFLRPVLTSEVPDYHQIIKTPMDLAKIKSKLNMGAYQLNEELLSDIQLVFRNCDLYNVEGNEIYDAGCQLERFVIDRCRDMQLPFRPSDMNGEVKAC

target: T1, FLAG tagged HP1c (Drosophila); experiment: affinity purification with mass spectrometry; nuclear extract of SL2 cells stably expressing HP1cFLAG on M2 anti-FLAG agarose, 2 hours at 4°C, washed with CB300, eluted with FLAG-peptide, SDS-PAGE, GeLC MS/MS and LC MS/MS; non-transfected cells as control

binding | Binder
binds | B1
binds | B2
no binding | B3
